Library screen at single concentrations

Measurements from “University of Dundee, Small-Polar-MMV Screening Library” (2021), ChEMBL document CHEMBL3988442.

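Whole-parasite assay of Trypanosoma brucei over 72 hours; the read-out is not stated. Concentration: 30 µM. Higher reads as stronger inhibition (inferred: compounds with an IC50 in retests scored well above the rest). Values scatter widely below zero; nearly all retest evidence comes from the higher of the two concentrations used. Of about 64,000 compounds tested this way, about 940 (1.5%) reached 50% or more in at least one test.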

Each number is a percent effect as filed. The controls that fix the scale are not given in the record; negative values are as filed. This is an unselected part of the compounds tested.

Compound	effect
CCc1noc(CN(CC)C(=O)C2CC(=O)N(Cc3ccncc3)C2)n1 (stereo not drawn)	-68.9
CS(=O)(=O)NCC(=O)N1CCCC1c1noc(C2CC2)n1 (stereo not drawn)	6.038
N#Cc1cccnc1NC1CCN(c2ccccc2OC(F)F)C1=O (stereo not drawn)	-64.17
CCn1cnnc1CNC(=O)N(C)Cc1ccc(F)c(F)c1	4.77
Cc1oc(-c2ccoc2)nc1CN1CCCCC1CCn1cccn1 (stereo not drawn)	-20.08
Cc1ncsc1C(=O)NC1CCN(c2ncccc2C#N)CC1	-7.096
COc1ccc(CC2(CO)CCN(c3cc(N)ncn3)CC2)cc1	-50.13
CN(C)C1CCCN(C(=O)NCCNC(=O)C2CCCCC2)C1 (stereo not drawn)	-45.19
O=C(c1ncccn1)N1CCC[C@]2(C[C@H](OCC3CC3)CO2)C1	-106.6
Cc1ccc(OCC2CCCN(c3cc(C(N)=O)ccn3)C2)cc1 (stereo not drawn)	-57.27
O=C(O)C(F)(F)F.[H][C@@]12COC[C@]1(COCC(=O)N(C)C)CN(Cc1sccc1C)C2	-32.4
COCC1c2c(cnn2C)CCN1Cc1ccc(C)o1 (stereo not drawn)	-27.82
Cc1ccsc1C(=O)N1CC(C(=O)NC(C)C)C2(CCOCC2)C1 (stereo not drawn)	-28.87
COCCCNC(=O)Nc1ccc(OCc2noc(C3CC3)n2)cc1	-29.33
O=C(c1ccc(-n2ccnc2)nc1)N1CCCC(n2cccn2)C1 (stereo not drawn)	-23
Cc1ccc(S(=O)(=O)NC(=O)c2cc(S(C)(=O)=O)ccc2C)s1	94.94
CCC(CC)N(Cc1ccc2c(c1)OCO2)C(=O)c1ccc(=O)n(C)c1	-25.69
Cc1cccc(CN2C(=O)CCC23CCNCC3)n1.O=C(O)C(F)(F)F.O=C(O)C(F)(F)F	-73.65
CCS(=O)(=O)NC(C(=O)NC)c1ccc(F)c(F)c1 (stereo not drawn)	-1.827
COc1ccc(CNc2cccnc2-n2cccn2)c(OC)c1OC	8.865
Cc1cc(S(C)(=O)=O)c(C)c(S(=O)(=O)N2CCCC(C)C2)c1 (stereo not drawn)	0.7387
COCCN1CCC2(CC1)CC(NC(=O)CC1CC1)c1ccccc1O2.O=C(O)C(F)(F)F (stereo not drawn)	-15.57
O=C(Nc1nncs1)N1CCC(c2ccc(O)cc2)CC1	17.48
CN(C)c1ncccc1CNC(=O)N1CCN(C)c2ccccc2C1	-18.92
CNCc1ccc([C@@H]2CN(C(C)=O)C[C@H]2C(N)=O)cc1.Cl	-4.211
CCc1nn(-c2cc(Oc3ccccc3)nc(C)n2)c(N)c1C#N	-17.69
O=C(Nc1ncn(CC(=O)N2CCCCCC2)n1)C1CCCO1 (stereo not drawn)	-44.36
CS(=O)(=O)Cc1nc(CN2CCC(C(F)(F)F)CC2)cs1	14.78
CN(Cc1ccccc1)S(=O)(=O)N1C[C@H](C2CC2)[C@@H](N)C1	24.81
Cc1ccc(OC2(C(=O)O)CCN(C(=O)c3nc(C)oc3C)CC2)cn1	39.64
CCN(Cc1c(C)nn(C)c1C)C(=O)C1COc2ccccc2C1 (stereo not drawn)	-26.81
COc1ccc(-c2cnc(N(C)C)nc2C2CN(C(C)=O)CCO2)cc1 (stereo not drawn)	-1.187
CN(C)Cc1cnc2n1CCN(C(=O)NCc1ccccc1)CC2.O=C(O)C(F)(F)F	-71.2
CC(C)C(=O)N1CCCN(C(=O)NC2CCc3ccccc3C2)CC1 (stereo not drawn)	-0.4283
CN(C(=O)Cc1coc(-c2cccs2)n1)C1(C#N)CCC1	-30.86
O=C(O)C(F)(F)F.O=C(O)C(F)(F)F.O=C1CC2(CCN(Cc3ccncc3)C2)CN1c1cccc(F)c1 (stereo not drawn)	-257.6
COc1ccc(CN2CCOC[C@H]2c2nc(-c3ccncc3)c[nH]2)cc1	-16.49
O=C(NC1CCN(CC2CCCC2)C1)N1CCC(OCC2CC2)CC1 (stereo not drawn)	15.18
O=C(O)C(F)(F)F.O=C(O)C(F)(F)F.[H][C@@]12CCN(Cc3cccc(C)n3)C[C@]1(C(=O)N1CCCO1)CCO2	-52.48
COc1ccc2cc(C3CN(C(=O)N(C)C)CCO3)ccc2c1 (stereo not drawn)	8.663
Cc1ccc(NC2CCN(C(=O)COC3CCCCC3)CC2)nn1	-13.64
O=C(O)C(F)(F)F.[H][C@]12CCN(CCOC)[C@@]1([H])CCC(COCC(=O)N1CCCC1)O2 (stereo partly drawn)	-20.25
CCCn1nc2c(cc1=O)CN(Cc1cc(C)no1)CC2	-1.666
CNc1nccc(-c2cnc3sc(C)c(C)n3c2=O)n1	-6.318
CC(C)S(=O)(=O)N1C[C@@H](O)[C@H](N(C)Cc2ccc(F)cc2)C1	-2.562
Cl.c1cc(NCc2ccncc2)nc(C2CCCN2)c1 (stereo not drawn)	7.613
CN(CC(N)=O)C(=O)CCCn1ccc2cc(Cl)ccc21	-37.28
CCC(=O)NC1CCCN(C(=O)Nc2cc(-c3ccccc3)on2)C1 (stereo not drawn)	24.3
C[C@]1(O)CCN(Cc2cncs2)C[C@@H]1Oc1cccc(F)c1	-16.27
Cc1ccc2c(c1C)OCC2NCc1cccc(C#N)c1 (stereo not drawn)	-359.8
O=C(O)C(F)(F)F.O=C(O)c1c(-c2cccnc2)ncc2c1CCN(CC1CCOC1)C2 (stereo not drawn)	-18.48
CN(C)CCN1CCCC12CCN(Cc1nccn1C)CC2.O=C(O)C(F)(F)F.O=C(O)C(F)(F)F.O=C(O)C(F)(F)F	-91.45
CC(NCC(=O)N(C)C1CC1)c1ccc(S(C)(=O)=O)c(F)c1 (stereo not drawn)	1.741
O=C(CCn1cc(Cl)cn1)N1CCCC(O)(CO)CC1 (stereo not drawn)	2.895
O=C(c1ccc2[nH]cnc2c1)N1CCC(COc2ccccn2)CC1	9.806
COCCN(C)CCN1CC2(CCN(C3CCCOC3)CC2)OC1=O (stereo not drawn)	1.37
CC(C)(C)c1cc(C(=O)N2CCC(c3cnccn3)CC2)[nH]n1	-11
CC(c1ccccc1)N(C)C(=O)Cn1cc(NC(=O)C(C)(C)C)cn1 (stereo not drawn)	5.656
CCc1noc(CN(C)C(=O)c2ccnc(OC3CCC3)c2)n1	-60.19
CC(C)(C)NC(=O)Cn1nc(C2CC2)cc(C(F)(F)F)c1=O	-2.393
CC1CCN(C(=O)c2cn(-c3cc(N4CCSCC4)ncn3)cn2)CC1	20.22
Cc1nc(CN(C)C2CCCN(c3cccnn3)C2)no1 (stereo not drawn)	-29.8
COc1cccc(C2CCCN2Cc2nc3c(cnn3C)c(=O)[nH]2)c1 (stereo not drawn)	-8.018
Nc1nc2c(c(N3CCCC3)n1)CCN(Cc1ccccn1)CC2	-13.68
[H][C@@]12CN(C(=O)c3ccoc3C)C[C@]1([H])C(=O)N(Cc1csc(C)n1)C2	-7.637
Cc1nc2cc(=O)[nH]n2c(C)c1CC(=O)Nc1cnn(C(C)(C)C)c1	-26.64
CCc1noc(CC)c1CNC(=O)Nc1cccc(C(=O)N(C)C)c1	-16.81

Once more, the final 5:

COc1cccc(C2CCCN2Cc2nc3c(cnn3C)c(=O)[nH]2)c1 (stereo not drawn) gave -8.018%.
Nc1nc2c(c(N3CCCC3)n1)CCN(Cc1ccccn1)CC2 gave -13.68%.
[H][C@@]12CN(C(=O)c3ccoc3C)C[C@]1([H])C(=O)N(Cc1csc(C)n1)C2 gave -7.637%.
Cc1nc2cc(=O)[nH]n2c(C)c1CC(=O)Nc1cnn(C(C)(C)C)c1 gave -26.64%.
CCc1noc(CC)c1CNC(=O)Nc1cccc(C(=O)N(C)C)c1 gave -16.81%.